Measurements from patent US5627143A, “Wellbore fluid” (Dowell Schlumberger Incorporated, priority 1993, dated 1997).

Assay: Example 4: change in rubber hardness and volume of elastomer exposed to base oil
Conditions: seven days at 85° C.

CCCCCCCC/C=C\CCCCCCCC(=O)OCC(CC)CCCC (stereo not drawn) [2-ethylhexyl oleate]
Hardness, percent change from the initial unaged value: -11.0%
Volume, percent change from the initial unaged value: 10.2%
effect on the elastomer, in words: undesirable greater swelling and softening effects
